The molecules below were run on OXS-OXCMe-Y497A-YciA cascade. Conditions: enantiomeric excess of the α-hydroxy acid product; 25 mM aldehyde, 10 mM disodium oxalate; chiral HPLC.
Assay type: biochemical
Method: Samples were diluted 1:10 in H2O. UPLC-high resolution MS analyses were performed on an Agilent 6550 iFunnel QTOF LC/MS system equipped with an electrospray ionization source to negative ionization mode. The analytes were isocratically chromatographed on a chiral column (100 mm×2.1 mm, particle size 2.7 μm, Poroshell 120 Chiral-T, Agilent) kept at ambient temperature using a mobile phase system comprised of 30:70 20 mM ammonium formate pH 4/methanol at a flow rate of 250 μl/min for 10 min. Samples were held at 10° C. and injection volume was 1 μl. […] MS data were acquired with a scan range of 100-1100 m/z. For quantification the calculated m/z value of [M-H]^− was used to obtain the extracted ion count from the total ion count.
0.5 mM ADP, 0.15 mM ThDP, 0.5 mM CoA, 10 mM ATP, 25 mM benzaldehyde, 5 μM OXS, 5 μM OXC and 2 μM YciA. The reaction was started by adding 10 mM oxalate. As negative controls, YciA, OXS or OXC were omitted in separate reactions. Samples were taken after 0, 0.05, 0.25, 0.66, 1, 2, 3, 22 hours and analyzed with the LC-MS detection of mandelic acid derivatives.
The aldehyde substrate screen of the OXS-OXCMe-Y497A-YciA cascade was carried out as described above (example 13), except that the aromatic aldehydes were prepared as 33 mM stocks in 20 vol % DMSO and diluted to final concentration of 25 mM into the assay. Samples were analyzed with the mandelic acid derivatives method described above. Mandelic acid (3a), 4-chloromandelic acid (3c), 2-chloromandelic acid (3d) and 3-phenyllactic acid (3b) were quantified by comparison to commercial standards.
With `O=C(O)C(O)c1ccc(Cl)cc1` (racemic) [4-chloromandelic acid] the “ee [%]” value was 95%.
With `O=C(O)[C@@H](O)c1ccccc1Cl` [2-chloromandelic acid, (S)-2-chloromandelic acid] the “ee [%]” value was 44%.
In the case of `O=C(O)C(O)c1cccc(Cl)c1` (stereo not drawn) [3-chloromandelic acid], the “ee [%]” value is reported as 98%.
In the case of `CC(=O)c1ccc(C(O)C(=O)O)cc1` (stereo not drawn) [4-acetylmandelic acid], the “ee [%]” value is reported as 51%.
In the case of `O=Cc1ccc(C(O)C(=O)O)cc1` (stereo not drawn) [4-aldehydemandelic acid], the “ee [%]” value is reported as 46%.
For `C#Cc1ccc(C(O)C(=O)O)cc1` (stereo not drawn) [4-ethynylmandelic acid], the “ee [%]” value was 75%.
With `O=C(O)C(O)c1ccc(O)cc1` (stereo not drawn) [4-hydroxymandelic acid] the “ee [%]” value was 95%.
For `O=C(O)C(O)c1ccc([N+](=O)[O-])cc1` (stereo not drawn) [4-nitromandelic acid], the “ee [%]” value was 80%.
`O=C(O)C(O)c1ccco1` (stereo not drawn) [Hydroxy(2-furyl)acetic acid] was tested, and the “ee [%]” value was 75%.
`O=C(O)C(O)c1ccc2ccccc2c1` (stereo not drawn) [Hydroxy(2-naphthyl)acetic acid] was tested, and the “ee [%]” value was 80%.
In the case of `O=C(O)C(O)c1cccs1` (stereo not drawn) [Hydroxy(2-thiopheneyl)acetic acid], the “ee [%]” value is reported as 65%.
With `O=C(O)C(O)c1ccccc1` (stereo not drawn) [mandelic acid] the “ee [%]” value was 99%.

— US20220315968A1, “PEPTIDES AND METHODS FOR THE CARBON-CARBON BOND FORMATION” (Max-Planck-Gesellschaft zur Förderung der Wissenschaften …, priority 2019, published 2022)
